Laboratory results: PubChem BioAssay AID504793 (Drosophila RNAi Screening Center, 2011)

- Aim: 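Genes required for cells to halt at G2/M after double-strand DNA breaks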 (primary screen)
- Cells: Drosophila S2R+ cells
- Knock-down reagent: long dsRNA against Drosophila genes, about 0.25 µg dsRNA per well
- Time to read-out: 4 days of dsRNA, then 4 hours of drug before read-out
- Treatment: doxorubicin 0.5 µM for 4 hours to cause double-strand breaks, in cells also given a low, harmless dose of dsRNA against nbs to sensitise the assay
- Read-out: 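Per-well count of mitotic cells stained for phospho-histone H3 after doxorubicin exposure, used as mitotic index; counts are raw and not normalised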
- Reading the numbers: mitotic cells: higher = more cells in mitosis, weaker G2 arrest
- Rule for the call: 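a call needs confirmation in secondary tests, with other dsRNAs and a check of mitotic timing without damage, not just a high primary count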
- Calls: active = confirmed in follow-up tests; inactive = not confirmed
The screen tested about 23,000 reagents; shown is a random part of those with a known target gene and a result. Of all reagents, 62 (0.27%) were called active. 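Calls come from follow-up tests whose scores are not deposited, so confirmed genes may have low counts here; counts are not normalised per plate.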 The raw values are shown without normalisation. The numbers tell different reagents against one gene apart. No sequences are given here.

gce #1 | mitotic cells, replicate 1: 11; Call: inactive
gce #2 | mitotic cells, replicate 1: 11; Call: inactive
gce #3 | mitotic cells, replicate 1: 6; Call: inactive
gce #4 | mitotic cells, replicate 1: 5; Call: inactive
lncRNA:CR32690 #1 | mitotic cells, replicate 1: 5; Call: inactive
lncRNA:CR32690 #2 | mitotic cells, replicate 1: 8; Call: inactive
TTLL15 | mitotic cells, replicate 1: 5; Call: inactive
CG12825 #1 | mitotic cells, replicate 1: 14; Call: inactive
CG12825 #2 | mitotic cells, replicate 1: 10; Call: inactive
CG6928 | mitotic cells, replicate 1: 4; Call: inactive
Dsp1 #1 | mitotic cells, replicate 1: 8; Call: inactive
Dsp1 #2 | mitotic cells, replicate 1: 9; Call: inactive
ppk15 #1 | mitotic cells, replicate 1: 16; Call: inactive
ppk15 #2 | mitotic cells, replicate 1: 6; Call: inactive
Diap2 #1 | mitotic cells, replicate 1: 3; Call: inactive
Diap2 #2 | mitotic cells, replicate 1: 3; Call: inactive
GCS2beta #1 | mitotic cells, replicate 1: 4; Call: inactive
GCS2beta #2 | mitotic cells, replicate 1: 5; Call: inactive
CG33144 #1 | mitotic cells, replicate 1: 6; Call: inactive
CG33144 #2 | mitotic cells, replicate 1: 12; Call: inactive
CG12071 | mitotic cells, replicate 1: 19; Call: inactive
PPP1R15 #1 | mitotic cells, replicate 1: 15; Call: inactive
PPP1R15 #2 | mitotic cells, replicate 1: 1; Call: inactive
Lnpk #1 | mitotic cells, replicate 1: 4; Call: inactive
Lnpk #2 | mitotic cells, replicate 1: 9; Call: inactive
CG7320 #1 | mitotic cells, replicate 1: 5; Call: inactive
CG7320 #2 | mitotic cells, replicate 1: 6; Call: inactive
CtsK1 | mitotic cells, replicate 1: 6; Call: inactive
serp #1 | mitotic cells, replicate 1: 8; Call: inactive
serp #2 | mitotic cells, replicate 1: 5; Call: inactive
brv3 #1 | mitotic cells, replicate 1: 14; Call: inactive
brv3 #2 | mitotic cells, replicate 1: 8; Call: inactive
Als2 | mitotic cells, replicate 1: 5; Call: inactive
fliI | mitotic cells, replicate 1: 9; Call: inactive
Tollo | Call: inactive
Gr64f #1 | mitotic cells, replicate 1: 4; Call: inactive
Gr64f #2 | mitotic cells, replicate 1: 2; Call: inactive
mRF1 #1 | mitotic cells, replicate 1: 10; Call: inactive
mRF1 #2 | mitotic cells, replicate 1: 3; Call: inactive
Lgr1 | mitotic cells, replicate 1: 10; Call: inactive
Efr #1 | mitotic cells, replicate 1: 5; Call: inactive
Efr #2 | mitotic cells, replicate 1: 3; Call: inactive
CG14545 #1 | mitotic cells, replicate 1: 5; Call: inactive
CG14545 #2 | mitotic cells, replicate 1: 5; Call: inactive

Reprinted from the entries so far (4 entries):
TTLL15 | mitotic cells, replicate 1: 5; Call: inactive
CG12825 #1 | mitotic cells, replicate 1: 14; Call: inactive
CG12825 #2 | mitotic cells, replicate 1: 10; Call: inactive
CG6928 | mitotic cells, replicate 1: 4; Call: inactive
